Measurements reported in PubChem BioAssay AID1259327 (Drosophila RNAi Screening Center, 2017)
Test: 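Baseline ATP after transmembrane-protein gene knock-down with water vehicle only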. Cells: Drosophila S2R+ cells. Reagent: long dsRNA against Drosophila genes. Duration: 5 days (water added on day 4, read one day later). Conditions: water added as vehicle, no metal, one day before read-out. Measurement: 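Luciferase ATP signal per well, normalised to plate mean, duplicate average converted to z-score across plates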. Reading the numbers: ATP z-score: higher = more total ATP than typical wells; ATP luminescence: higher = more total ATP. Call rule: 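a hit is any knock-down whose absolute ATP z-score is greater than 1.5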. Meaning of the calls: active = hit: ATP up or down; inactive = no clear ATP change.
This is a random part of about 3,100 reagents tested. Of all reagents, 378 (12%) are marked active. 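Hits include both directions; z-score sign shows ATP rise or fall; raw luminescence values are not plate-normalised.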 A number with no mark means an inactive call. The numbers tell different reagents against one gene apart. A plus sign joins genes that one reagent is predicted to hit. Reagent sequences are not shown. Not stated in the record: the amount of reagent.

gene | reagent | ATP z-score, duplicate mean | ATP luminescence, replicate 1 (RLU) | ATP luminescence, replicate 2 (RLU)
Orct2 | 1 | 0.85 | 8.23e5 | 7.64e5
Orct2 | 2 | 1.65 (active) | 7.49e5 | 8.37e5
CG2126 | 1 | 1.04 | 5.82e5 | 7.93e5
CG9555 | 1 | -0.292 | 7.04e5 | 6.86e5
CG9555 | 2 | -0.0669 | 7.98e5 | 8.86e5
CG33116 | 1 | 0.804 | 6.09e5 | 4.56e5
Gr32a | 1 | -0.192 | 7.18e5 | 6.93e5
Gr32a | 2 | -1.31 | 3.59e5 | 3.73e5
Tsp86D | 1 | -0.663 | 2.82e5 | 6.57e5
PIG-O | 1 | 0.593 | 7.69e5 | 8.20e5
PIG-O | 2 | 0.771 | 5.63e5 | 4.48e5
Prip | 1 | 0.488 | 7.64e5 | 8.03e5
Prip | 2 | -1.19 | 9.82e5 | 1.14e6
Ser | 1 | -1.05 | 5.33e5 | 7.08e5
Ser | 2 | 0.267 | 9.83e5 | 7.83e5
Rh2 | 1 | -0.576 | 2.93e5 | 6.48e5
Rh2 | 2 | -0.501 | 7.42e5 | 8.34e5
stnA + stnB | 1 | -0.179 | 7.26e5 | 6.89e5
stnA + stnB | 2 | 0.0145 | 7.46e5 | 7.42e5
stnA + stnB | 3 | 1.09 | 8.11e5 | 9.13e5
Nup358 | 1 | -2.64 (active) | 5.40e5 | 4.72e5
CG14647 | 1 | 0.194 | 8.42e5 | 9.07e5
CG14647 | 2 | -1.52 (active) | 3.94e5 | 3.29e5
lbm | 1 | -0.661 | 5.26e5 | 5.93e5
lbm | 2 | -1.28 | 3.61e5 | 3.76e5
CG30048 | 1 | -0.793 | 4.85e5 | 5.40e5
CG30048 | 2 | 3.47 (active) | 9.40e5 | 8.14e5
Gr68a | 1 | 0.755 | 1.03e6 | 9.63e5
Gr68a | 2 | 0.436 | 5.34e5 | 4.83e5

Ordered by “ATP z-score, duplicate mean” (lowest first): 2 of the entries above.
gene | reagent | ATP z-score, duplicate mean | ATP luminescence, replicate 1 (RLU) | ATP luminescence, replicate 2 (RLU)
Gr68a | 2 | 0.436 | 5.34e5 | 4.83e5
Gr68a | 1 | 0.755 | 1.03e6 | 9.63e5
